Measured values from publication PMC4192509.
These are yes or no findings as the source states them, for the method shown. Binding can be weak; no strength is given. Tags and fused reporters may be left off the sequences shown. For part of these data: Binding seen in cells or lysates may run through a third protein.

How the values were obtained:
TPP1(WT)-3xHA (human) [1] = assay: co-IP; HEK293T extracts 48 h post-transfection; 10 mM Tris/HCl pH 8.0, 150 mM NaCl, 2 mM MgCl2, Nonidet P-40; anti-FLAG affinity gel, anti-HA-agarose or anti-USP7 with Protein G-Sepharose, 4 h at 4 °C; Western blot
TPP1(WT)-3xHA (human) [2] = assay: pull-down; binding assay: purified TPP1 constructs held on anti-HA-agarose beads (pre-incubated with purified USP7(WT)-3xFLAG or buffer, 2 h 37 °C); purified proteins added in 25 mM Tris/HCl pH 8.0, 150 mM NaCl, 2 mM MgCl2 with 0.2 μg/μl BSA, 2 h at 4 °C; Western blot; both purified
[3] = target: TPP1(WT)-3xHA-His (human); assay: as above

- binding (TPP1(WT)-3xHA (human) [1]): binds
- binding (TPP1(WT)-3xHA (human) [2]): binds
- binding [3]: binds
B1: TIN2–3xFLAG (protein, UniProt Q9BSI4 1-451)
chain: MATPLVAGPAALRFAAAASWQVVRGRCVEHFPRVLEFLRSLRAVAPGLVRYRHHERLCMGLKAKVVVELILQGRPWAQVLKALNHHFPESGPIVRDPKATKQDLRKILEAQETFYQQVKQLSEAPVDLASKLQELEQEYGEPFLAAMEKLLFEYLCQLEKALPTPQAQQLQDVLSWMQPGVSITSSLAWRQYGVDMGWLLPECSVTDSVNLAEPMEQNPPQQQRLALHNPLPKAKPGTHLPQGPSSRTHPEPLAGRHFNLAPLGRRRVQSQWASTRGGHKERPTVMLFPFRNLGSPTQVISKPESKEEHAIYTADLAMGTRAASTGKSKSPCQTLGGRALKENPVDLPATEQKENCLDCYMDPLRLSLLPPRARKPVCPPSLCSSVITIGDLVLDSDEEENGQGEGKESLENYQKTKFDTLIPTLCEYLPPSGHGAIPVSSCDCRDSSRPL
